# Primary screen of a compound library

Data taken from ChEMBL document CHEMBL3988442, “University of Dundee, Small-Polar-MMV Screening Library” (2021).

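Whole-cell assay for inhibitors of Mycobacterium tuberculosis growth, labelled Cornell in the record; the read-out is not stated. The concentration is filed as 10 mM, unlikely as a test dose, so the dose is not known. Higher means stronger inhibition (inferred from two other growth screens of the library). Of about 53,000 compounds tested this way, about 900 (1.7%) reached 50% or more in at least one test.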

Values are the deposited “Percent Effect”, in %. The record does not define 0% and 100%; most values in the screen are far below 50% and negative numbers occur (in some assays of this library far below -100). The compounds are a random part of those screened.

| # | Compound | Percent Effect |
|---|---|---|
| 1 | `CCOc1ccnc(N2CCN(C(=O)c3ccc(OC)cc3)CC2)n1` | -16.17 |
| 2 | `[H][C@@]12CN(Cc3cc4ccccc4s3)C[C@]1([H])N(Cc1ccccn1)C(=O)O2` | -6.713 |
| 3 | `Cc1ccoc1C(=O)NCCS(=O)(=O)N1CCSCC1` | 13.08 |
| 4 | `CN(CC1Cc2ccccc2CN1C)c1nc(N)nc2c1CCNCC2` (stereo not shown) | -16.21 |
| 5 | `Cc1ccccc1-c1cc(NC(=O)CC(C)C)n(CCO)n1` | 4.168 |
| 6 | `O=C(C(CNCc1ccco1)c1ccccc1)N1CCOCC1` (stereo not shown) | -11.2 |
| 7 | `Cc1ccccc1[C@@H]1CN(Cc2nc3ncccn3n2)C[C@H]1C(=O)O` | -13.22 |
| 8 | `COc1ccc(-c2noc([C@@H](C)NC(=O)CC(C)C)c2C(=O)O)cc1` | 11.18 |
| 9 | `[H][C@@]12C[C@@H](NC(=O)C(C)(C)C)[C@]1([H])CN(S(=O)(=O)c1ccc(C)cc1)C2` | 6.883 |
| 10 | `COc1ccccc1CC(=O)N1CCCC(n2nc(C)cc2C)C1` (stereo not shown) | 4.815 |
| 11 | `CC(=O)Nc1nc(CN2CCCCC2Cn2cccn2)cs1` (stereo not shown) | 18.67 |
| 12 | `CCS(=O)(=O)N1CCC(Oc2ccc(C#N)cc2)CC1` | -19.54 |
| 13 | `CCN(CC)CCCNCc1cc2cc(C)cc(C)c2[nH]c1=O` | -11.68 |
| 14 | `CC(C1CCN(Cc2ccc(N(C)C)nc2)CC1)N1CCOCC1` (stereo not shown) | 5.978 |
| 15 | `CC(C)c1nnc(CNc2nc(-c3cccnc3)nc3c2CCC3)n1C` | 6.891 |
| 16 | `CCC(=O)c1cccc(S(=O)(=O)NC(C)C#N)c1` (stereo not shown) | 1.327 |
| 17 | `CCN(CC)CCNC(=O)c1ccc(Cl)c(NS(C)(=O)=O)c1` | 14.85 |
| 18 | `Cc1cc(C(=O)N2C[C@@H](C(=O)O)[C@H](c3ccccc3C)C2)c(C)o1` | 2.126 |
| 19 | `Cc1cc(=O)[nH]c(CCNC(=O)C(c2ccc(F)cc2)N(C)C)n1` (stereo not shown) | -10.31 |
| 20 | `Cc1cc(-c2nccs2)nc(C2CCN(Cc3ccccn3)CC2)n1` | 18.43 |
| 21 | `CSc1ccc(OCCN2CCC(n3cncn3)CC2)cc1` | 22.48 |
| 22 | `Clc1cc(N2CCN3CCCCC3C2)nc2[nH]ccc12` (stereo not shown) | 18.73 |
| 23 | `CC(C)CNC(=O)c1ccc(NC(=O)NC2CC2)cc1Cl` | 6.963 |
| 24 | `COC(=O)c1ccc(NCc2csc(C)n2)cc1Cl` | 15.32 |
| 25 | `Cn1cc(N2CCCC(NCc3cccc4c3OCCCO4)C2)cn1` (stereo not shown) | 16.9 |
| 26 | `OCC1CCCCN1CCCNCc1cc(O)c2cc(F)ccc2n1` (stereo not shown) | 14.03 |
| 27 | `Cc1cccc(CNCc2c(C)nn(C)c2N2CCOCC2)n1` | 1.49 |
| 28 | `O=C(CC1CCN(c2cccnn2)CC1)Nc1cccnc1` | 9.011 |
| 29 | `Cc1noc(C)c1NC(=O)N1CCC(NC(=O)OC(C)(C)C)CC1` | -1.607 |
| 30 | `CC(c1nnc(-c2ccccc2)o1)N1CCC(Nc2ccccc2)CC1` (stereo not shown) | -9.582 |
| 31 | `Cc1ccc(OCCC(=O)NC2CCc3nc(C)cn3C2)cc1` (stereo not shown) | 13.6 |
| 32 | `Cc1cc(C)cc(CN2CCN(Cc3cc(C#N)n(C)c3)CC2=O)c1` | 18.66 |
| 33 | `COc1cc(-c2ccc(F)c3c2OC(CN)C3)cc(OC)c1OC` (stereo not shown) | 4.828 |
| 34 | `O=C(c1ccccc1O)N1CCn2c(nnc2C(F)(F)F)C1` | 12.7 |
| 35 | `CCC(C)(NCc1nc(C)c(C)o1)c1nccs1` (stereo not shown) | -17.78 |
| 36 | `CN(C)C(=O)N1CCc2c(COCC3CC3)cncc2C1` | 3.809 |
| 37 | `O=C(NC[C@H]1OC[C@@H](NC2CCCC2)[C@@H]1O)C1CCCC1` | -27.34 |
| 38 | `O=C(O)c1cc(S(=O)(=O)Nc2ccc(F)cc2Cl)cc2c1OCCO2` | -3.007 |
| 39 | `CN(Cc1cccc(F)c1)C(=O)CN1CCCCC1Cn1cncn1` (stereo not shown) | -21.34 |
| 40 | `O=C1CCSCC(C(=O)N2CCCCC2)N1` (stereo not shown) | 20.75 |
| 41 | `Cc1nc(N2CCN(C(=O)C(C)(C)C)CC2)cc(-n2cnc(C)c2C)n1` | -5.771 |
| 42 | `CSc1[nH]nc(NC(=O)c2ccncc2)c1C#N` | 3.22 |
| 43 | `Cc1cc(CN2CCCC2c2noc(C3CC3)n2)c2ccccc2n1` (stereo not shown) | 12.61 |
| 44 | `CN(CC1COCCO1)c1ncnc2cc(F)ccc12` (stereo not shown) | -35.58 |
| 45 | `O=C(c1ccco1)N1CCC2(CC1)C(=O)Nc1ccccc12` | 12.09 |
| 46 | `O[C@@H]1CCN(c2ccc3c(Cl)ccnc3c2F)C1` | 17.73 |
| 47 | `Cc1cnn(CC2CCCN2C(=O)c2cc(C)no2)c1` (stereo not shown) | 11.46 |
| 48 | `CC(C)c1nnc2n1CCN(C(C)c1nnc(-c3cccs3)o1)C2` (stereo not shown) | -1.826 |
| 49 | `CCC1CN(CC(=O)NCCOC)CCO1` (stereo not shown) | 12.17 |
| 50 | `CC1Cc2cc(-c3cncn3CC(=O)NC(C)(C)C)ccc2N1C.Cl` (stereo not shown) | -2.378 |
| 51 | `Cc1ncsc1CN1CCn2c(COc3cccnc3)cnc2C1C.O=C(O)C(F)(F)F.O=C(O)C(F)(F)F` (stereo not shown) | 19.93 |
| 52 | `COc1cccc(N2CCN(Cc3nccc(OC)c3OC)CC2=O)c1` | -1.27 |
| 53 | `[H][C@@]12CCN(Cc3cc(C)on3)C[C@]1(C(=O)N1CCOCC1)CCO2` | 6.213 |
| 54 | `COCCn1cncc1-c1nc2c([nH]1)CC(C)(C)CNC2=O` | -23.15 |
| 55 | `COCc1cc(CNC(=O)c2cccc3c2OCC3)n[nH]1` | 16.88 |
| 56 | `CC(C)[C@H]1CN(S(C)(=O)=O)C[C@@H]1NC(=O)c1ccnc(N)c1` | 1.391 |
| 57 | `COC[C@]1(O)CCN(Cc2cnc(N(C)C)nc2)CC1(C)C` | 2.701 |
| 58 | `Cc1cc(CN2CCCC2)cc(Oc2nc(C)cnc2C)c1` | -0.05473 |
| 59 | `COCCC(=O)N(CCC#N)c1ccc2c(c1)OCCO2` | 0.8387 |
| 60 | `CCc1ccc(-c2ncc3c(n2)N(C)CCN(CCN(C)C)C3=O)cc1` | 13.52 |
| 61 | `O=C1NCC[C@]12CN(Cc1ccsc1)C[C@H]2c1ccccc1` | 5.892 |
| 62 | `CC(C)CCC1=NC2(CCN(C(=O)N3CCN(C)CC3)CC2)C(=O)N1` | 5.388 |
| 63 | `CC(C)C(CNC(=O)CCn1cncn1)N1CCc2ccccc2C1` (stereo not shown) | -36.83 |
| 64 | `Cl.O[C@@H]1CN(Cc2ccc(F)cc2)CC[C@H]1NCc1ccccn1` | 8.947 |
| 65 | `Cc1ccc(C2CC(=O)NCc3nc(N)sc32)cc1C` (stereo not shown) | 10.51 |
| 66 | `[H][C@@]12CCN(CC3CC3)C[C@]1(C(=O)NCCc1ccccn1)CCO2` | 21.28 |
| 67 | `COc1ccc(Br)cc1S(=O)(=O)N(C)Cc1ccc(N(C)C)cc1` | 2.948 |
| 68 | `[H][C@]12CNC[C@@]1(C(=O)NCCOCCO)CN(C1CCCC1)C2` | -12.76 |
| 69 | `Cc1ccnn1CC(=O)N(C)Cc1ccc(-n2cccn2)cc1` | 27.48 |
| 70 | `CN(C)CC(=O)N1CCc2cccc(S(=O)(=O)N3CCOCC3)c2C1` | -24 |
| 71 | `COCCN1CCC2(CCC1=O)CN(C1CCOCC1)CCN2C` (stereo not shown) | -43.08 |
| 72 | `CCc1ccc(C(=O)N2CCCCC2CNS(C)(=O)=O)o1` (stereo not shown) | -8.283 |
| 73 | `CC(C)(C)c1ncc2c(n1)CN(C(=O)c1ccncc1)C2` | 23.59 |
| 74 | `CC(=O)N1N=C(c2ccccc2)OC1C(=O)NCCc1ccc(C)cc1` (stereo not shown) | -0.477 |
| 75 | `CCN1CCN(C2CCN(CCOc3ccc(F)cc3)CC2)C1=O` | 5.612 |
| 76 | `O=C(O)c1ccc(CN2CCC(c3ccnc4ccnn34)CC2)cc1` | 6.875 |
| 77 | `O=C(CCCc1ccccc1)N1CCCC(n2cncn2)C1` (stereo not shown) | 11.5 |
| 78 | `Cc1cc(C)n(C2CCCN(C(=O)CCNc3ncccn3)C2)n1` (stereo not shown) | 19.01 |
| 79 | `CCc1nc(C2CCCN2C(=O)CCn2cncn2)no1` (stereo not shown) | 6.932 |
| 80 | `CC(C)(C)c1ccn(C2(C(=O)O)CCN(c3ccnc(N)n3)CC2)n1` | -5.48 |
| 81 | `N#Cc1cccc(OCCN2CCCC(c3noc(C4CC4)n3)C2)c1` (stereo not shown) | 12.72 |
| 82 | `CCc1csc(CCNC(=O)CC2CCN(C(C)C)CC2)n1` | -25.45 |

Once more, the final 7:

Compound	Percent Effect
O=C(O)c1ccc(CN2CCC(c3ccnc4ccnn34)CC2)cc1	6.875
O=C(CCCc1ccccc1)N1CCCC(n2cncn2)C1 (stereo not shown)	11.5
Cc1cc(C)n(C2CCCN(C(=O)CCNc3ncccn3)C2)n1 (stereo not shown)	19.01
CCc1nc(C2CCCN2C(=O)CCn2cncn2)no1 (stereo not shown)	6.932
CC(C)(C)c1ccn(C2(C(=O)O)CCN(c3ccnc(N)n3)CC2)n1	-5.48
N#Cc1cccc(OCCN2CCCC(c3noc(C4CC4)n3)C2)c1 (stereo not shown)	12.72
CCc1csc(CCNC(=O)CC2CCN(C(C)C)CC2)n1	-25.45